89 sequences from the supplement of paper PMC10338343 can be followed below.

± gives the standard deviation. This is a selection; strong and weak results do not stand in their true shares. The uncertainty is large for many entries.
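Also: 1 nM active piRISC with 0.1 nM target library at 33 °C single turnover.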

The experiment deals with MILI (PIWIL2) piRISC loaded with piRNA #2 (26 nt). Briefly: pre-steady-state target cleavage rate (min^-1); MIWI and MILI are mouse PIWI proteins and EfPiwi is from a freshwater sponge; tags in brackets are library labels; higher = faster piRNA-guided slicing of the target. As to conditions: guide: piRNA #2 5'p-UUAGGUAACCCAGUAGAUCCAGAGGA; auxiliary factor: 500 nM mouse GTSF1. The gist of the method:
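A burst-and-steady-state fit was used to obtain the pre-steady-state cleavage rate. The input data were sequencing reads of uncleaved targets, normalised to depth and to weakly complementary targets, from a […] transcribed, DNA-blocked target RNA library mixed with 1 nM active affinity-purified piRISC holding one synthetic guide, with or without 500 nM GTSF1 partner protein, in HEPES–potassium acetate buffer at 33 °C for 0–8 or 0–960 min. Three trials were pooled and k3 was capped at 0.0001 min^-1.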
Regarding CUUAAGGAGACGAUCUACUGGGAAUCCUAA, the “pre-steady-state target cleavage rate” value was 0.000278 ± 0.018.

Consider CUUAAGGAGUGGUUCUACUGGGUUACGUAA, for which the “pre-steady-state target cleavage rate” value turned out to be 0.000827 ± 0.01.

Take CUUAUCCUCUGGAUCUACUGGCUUACCAAA: the “pre-steady-state target cleavage rate” value worked out at 0.00073 ± 0.011.

CUUAAGGAGUGGAUCUACUUGGGUUACCUAA: the “pre-steady-state target cleavage rate” value turned out to be 0.000828 ± 0.0091.

For the sequence CUUAAGGAGACGAUCUAGUGGGUUACCUAA, the “pre-steady-state target cleavage rate” value was 0.00154 ± 0.0044.

With CUUAAGGAGACCUAGAUCUUGGGUUACCUAA, the “pre-steady-state target cleavage rate” value is 0.00055 ± 0.013.

On to CUUAAGGACUGGUUCUACUGGGUUACGUAA, for which the “pre-steady-state target cleavage rate” value came to 0.00215 ± 0.014.

Consider CUUAAGGAGACGAUCUUCUGGCUUACCUAA, for which the “pre-steady-state target cleavage rate” value stood at 0.000681 ± 0.0072.

For CUUAACCUCUGGGUCUACUGGGUUACCUAA, the “pre-steady-state target cleavage rate” value turned out to be 0.169 ± 0.029.

Consider CUUAAGGAGUCGAUCUACUGGGUAACCUAA, for which the “pre-steady-state target cleavage rate” value came out at 0.00162 ± 0.0098.

Take CUUAAGGAGACCUAGAUGUGGGUAACCUUA: the “pre-steady-state target cleavage rate” value came out at 0.000247 ± 0.033.

For the sequence CUUAAGGAGAGGUAGUACUGGGUUACCUAA, the “pre-steady-state target cleavage rate” value was determined as 0.000574 ± 0.014.

As to CUUAAGGAGAGGUUCUACUGGGAUACCUAA, the “pre-steady-state target cleavage rate” value is 0.00148 ± 0.0039.

Consider CUUAAGGAGACCUUCUACUGCGUUACCUAA, for which the “pre-steady-state target cleavage rate” value turned out to be 0.000801 ± 0.013.

On to “CUUAAGGAGACCUAGAUGAGGGUUACCUAG [g2:g11:cont:t1G]”, for which the “pre-steady-state target cleavage rate” value amounted to 0.00048 ± 0.02.

As for CUUAAGGACUGGAUUACUGGGUUACCUAA, the “pre-steady-state target cleavage rate” value stood at 0.000819 ± 0.034.

For CUUAAGGUCACCAUCUACUGGGUUACCUAA, the “pre-steady-state target cleavage rate” value worked out at 0.000945 ± 0.0085.

For the sequence CUUAAGGUCAGGAUCUACUGGGAUACCUAA, the “pre-steady-state target cleavage rate” value stood at 0.00648 ± 0.0073.

For CUUAAGGAGACGAUCAACUGCGUUACCUAA, the “pre-steady-state target cleavage rate” value is 0.000538 ± 0.011.

CUUAAGGAGACCUUCUACUGGGUUACCAUAA: the “pre-steady-state target cleavage rate” value was found to be 0.000495 ± 0.022.

Take CUUAAGGAGACCAUCUAGUGGCUUACCUAA: the “pre-steady-state target cleavage rate” value came to 0.000284 ± 0.016.

Regarding CUUAAGGAGAGGAUUACUGGGUUACCUAA, the “pre-steady-state target cleavage rate” value stood at 0.00101 ± 0.01.

With “CUUAUCCUCUGGAUCUACUCCCAAUGGAUA [g12:g26:cont:t1A]”, the “pre-steady-state target cleavage rate” value amounted to 0.000398 ± 0.019.

CUUAAGGUCUGGAUCUAGCUGGGUUACCUAA: the “pre-steady-state target cleavage rate” value came to 0.000358 ± 0.016.

Consider CUUAACCUCUGGCAUCUACUGGGUUACCUAA, for which the “pre-steady-state target cleavage rate” value is 2.04 ± 1.1.

On to CUUAACCUCUGGAUCUACUCGGUUACGUAA, for which the “pre-steady-state target cleavage rate” value was found to be 0.000248 ± 0.046.

As to CUUAAGGAGACCUACUACUGCGGUUACCUAA, the “pre-steady-state target cleavage rate” value turned out to be 0.000208 ± 0.02.

Regarding CUUAAGGACAGGAUCUUCUGGGUUACCUAA, the “pre-steady-state target cleavage rate” value was found to be 0.00551 ± 0.0093.

“CUUAAGGAGACCUAGUACUGGGUUACCUAC [g2:g15:cont:t1C]”: the “pre-steady-state target cleavage rate” value stood at 0.000251 ± 0.032.

As for CUUAACCUCUUGGAUCUACUGGGUUACCUAA, the “pre-steady-state target cleavage rate” value turned out to be 0.245 ± 0.072.

For CUUAAGGAGAGGAUCUAGAGGGUUACCUAA, the “pre-steady-state target cleavage rate” value is 0.000349 ± 0.016.

CUUAUCCUCUGGAUCUACUGGUGUUACCUAA: the “pre-steady-state target cleavage rate” value came to 0.00226 ± 0.0057.

Regarding CUUAAGGAGACCAUCUACUGGGUUCCUAA, the “pre-steady-state target cleavage rate” value came out at 0.000274 ± 0.021.

In the case of CUUAAGGAGACCUAGAUGUAGGUUACCUAA, the “pre-steady-state target cleavage rate” value was 0.000214 ± 0.039.

Take CUUAAGGACUGGAACUUCUGGGUUACCUAA: the “pre-steady-state target cleavage rate” value is 0.000917 ± 0.018.

For the sequence CUUAAGGAGACCUUCUACAGGGUUAGCUAA, the “pre-steady-state target cleavage rate” value was determined as 0.000914 ± 0.012.

For the sequence CUUAAGGAGACGAUCUAGUGGGUUACGUAA, the “pre-steady-state target cleavage rate” value came to 0.000368 ± 0.015.

With “CUUAACCUCUGGAUCUACUGGGUAUGGAUA [g8:g25:cont:t1A]”, the “pre-steady-state target cleavage rate” value was 0.000301 ± 0.034.

With CUUAAGGAGACCAUCUACUGGCUUACGUAA, the “pre-steady-state target cleavage rate” value worked out at 0.000289 ± 0.033.

For the sequence CUUAAGGACUGGAUCUACUGGGUUCACCUAA, the “pre-steady-state target cleavage rate” value was 0.00434 ± 0.01.

Regarding CUUAAGGAGAGGAUCUACUUGGUUACCUAA, the “pre-steady-state target cleavage rate” value amounted to 0.00126 ± 0.008.

In the case of CUUAAGGAGACGAUCUACAUGGGUUACCUAA, the “pre-steady-state target cleavage rate” value is 0.000728 ± 0.013.

Regarding CUUAAGGAGACCAUCUACUGGGUUACCAUA, the “pre-steady-state target cleavage rate” value amounted to 0.00091 ± 0.01.

In the case of CUUAAGCUCUGGAGCUACUGGGUUACCUAA, the “pre-steady-state target cleavage rate” value turned out to be 0.0783 ± 0.014.

Turning to CUUAAGGAGACCUAGUAUCUGGGUUACCUAA, the “pre-steady-state target cleavage rate” value came to 0.000283 ± 0.029.

Turning to CUUAAGGAGACCUUCAACAGGGUUACCUAA, the “pre-steady-state target cleavage rate” value worked out at 0.00032 ± 0.022.

On to CUUAAGCUCUGGAUCUACAGGGUUACGUAA, for which the “pre-steady-state target cleavage rate” value was 0.0394 ± 0.01.

With CUUAAGGAGACCUAGUACUGGGUUACCUUAA, the “pre-steady-state target cleavage rate” value worked out at 0.000313 ± 0.028.

Take CUUAAGGAGACCUUCUACUGGGUAUGCUAA: the “pre-steady-state target cleavage rate” value turned out to be 0.000285 ± 0.032.

CUUAAGGAGAGGAUGUACUGGGAUACCUAA: the “pre-steady-state target cleavage rate” value worked out at 0.000307 ± 0.028.

“CUUAACCUCUGGAUCUACUGGGUUAGGAUA [g6:g25:cont:t1A]”: the “pre-steady-state target cleavage rate” value was determined as 0.00129 ± 0.0089.

Consider CUUAUCCCUCUGGAUCUACUGGGUUACCUAA, for which the “pre-steady-state target cleavage rate” value came out at 0.0911 ± 0.022.

CUUAAGGAGACCAUCUACAGGGAUACCUAA: the “pre-steady-state target cleavage rate” value came out at 0.00131 ± 0.007.

As to CUUAAGGAGACCUUCUACAGGGAUACCUAA, the “pre-steady-state target cleavage rate” value turned out to be 0.000602 ± 0.011.

With CUUAAGGAGACCUACUACUAGGGUUACCUAA, the “pre-steady-state target cleavage rate” value came to 0.00055 ± 0.016.

For the sequence CUUAAGGAGUCGAUCUAGUGGGUUACCUAA, the “pre-steady-state target cleavage rate” value was found to be 0.00104 ± 0.0073.

Consider CUUAAGGAGACGAUCUACACGGUUACCUAA, for which the “pre-steady-state target cleavage rate” value was 0.000636 ± 0.034.

As to CUUAAGGAGACGAUCUCUGGGUUACCUAA, the “pre-steady-state target cleavage rate” value worked out at 0.000632 ± 0.0096.

Consider CUUAAGGAGAGGAUGUACUGCGUUACCUAA, for which the “pre-steady-state target cleavage rate” value turned out to be 0.00058 ± 0.016.

With CUUAAGGAGACCUACUACUGGGUUACCAAA, the “pre-steady-state target cleavage rate” value is 0.000235 ± 0.028.

For CUUAAGCUCAGGAUCAACUGGGUUACCUAA, the “pre-steady-state target cleavage rate” value stood at 0.0432 ± 0.014.

For the sequence CUUAAGGAGACCUAGUACUGGGAUUCCUAA, the “pre-steady-state target cleavage rate” value came out at 0.000819 ± 0.012.

For the sequence CUUAAGCUCUGGAUCUACUCGGGUUACCUAA, the “pre-steady-state target cleavage rate” value came to 0.00162 ± 0.0071.

For the sequence CUUAAGGAGUGGAUCUACUGGGAAACCUAA, the “pre-steady-state target cleavage rate” value is 0.0025 ± 0.0056.

As to CUUAAGGAGUGGAUCUACUGGGCUACCUAA, the “pre-steady-state target cleavage rate” value was determined as 0.000478 ± 0.02.

Take CUUAAGGAGACGAUGUUCUGGGUUACCUAA: the “pre-steady-state target cleavage rate” value was determined as 0.000307 ± 0.025.

As to CUUAAGGAGACCAUCUCACUGGGUUACCUAA, the “pre-steady-state target cleavage rate” value turned out to be 0.00023 ± 0.038.

For “CUUAAGGAGACCUACUACUGGGUUACCUAC [g2:g16:cont:t1C]”, the “pre-steady-state target cleavage rate” value was 0.000167 ± 0.017.

As to CUUAAGGACUGGAUCUAUGGGUUACCUAA, the “pre-steady-state target cleavage rate” value worked out at 0.00281 ± 0.0095.

For CUUAAGGAGAGGAUCUACUGCCAUACCUAA, the “pre-steady-state target cleavage rate” value was 0.00011 ± 0.026.

Regarding CUUAACCUCUGCAUCUACUGGCUUACCUAA, the “pre-steady-state target cleavage rate” value worked out at 0.00389 ± 0.004.

As to CUUAAGGAGACCUUCUAGUGGCUUACCUAA, the “pre-steady-state target cleavage rate” value was 0.000344 ± 0.019.

For the sequence CUUAAGGACUGGAUCUACUGGGUAACCUUA, the “pre-steady-state target cleavage rate” value was 0.000502 ± 0.027.

For CUUAAGGACUGGAUCUACUCGGUUACCUAA, the “pre-steady-state target cleavage rate” value amounted to 0.000893 ± 0.019.

For CUUAAGGAGUGGAUCUAGUGGGUUACGUAA, the “pre-steady-state target cleavage rate” value amounted to 0.000281 ± 0.015.

For CUUAAGGAGUGGAUCUACCUGGGUUACCUAA, the “pre-steady-state target cleavage rate” value was determined as 0.000764 ± 0.013.

With CUUAAGGAGAGGAUCUACUGGGUAACCUUA, the “pre-steady-state target cleavage rate” value turned out to be 0.00116 ± 0.0075.

CUUAAGGAGAGGAUCUACUGGGUUACCUGA: the “pre-steady-state target cleavage rate” value was determined as 0.00228 ± 0.0058.

As for CUUAAGGAGAGGAUCUACUGGGUUUCCAAA, the “pre-steady-state target cleavage rate” value was 0.000306 ± 0.029.

As to CUUAAGGAGACCACUACUGGGUUACCUAA, the “pre-steady-state target cleavage rate” value was 0.000742 ± 0.014.

For the sequence CUUAAGGAGUGGAUCUUCUGCGUUACCUAA, the “pre-steady-state target cleavage rate” value was 0.00138 ± 0.0093.

CUUAUCCUCUGGAUCUACUGCGUUAGCUAA: the “pre-steady-state target cleavage rate” value turned out to be 0.00192 ± 0.0068.

As for CUUAAGGAGACCAUCUAUGGGUUACCUAA, the “pre-steady-state target cleavage rate” value was 0.000346 ± 0.028.

For the sequence CUUAAGGAGUGGAUCUACUGGGUUACUAA, the “pre-steady-state target cleavage rate” value was found to be 0.00233 ± 0.0059.

As to CUUAAGCUCUGGAUCUACUGGGUUUGCUAA, the “pre-steady-state target cleavage rate” value turned out to be 0.144 ± 0.031.

As to CUUAAGGACUGGAUGCUACUGGGUUACCUAA, the “pre-steady-state target cleavage rate” value worked out at 0.00666 ± 0.0099.

For the sequence CUUAAGGUCUGGAUCUCUGGGUUACCUAA, the “pre-steady-state target cleavage rate” value came to 0.000711 ± 0.032.

Take CUUAAGGAGACCUUCAACUGGGUUUCCUAA: the “pre-steady-state target cleavage rate” value is 0.000326 ± 0.022.

Take CUUAAGGAGACGAUCUAGUGGGUAACCUAA: the “pre-steady-state target cleavage rate” value was determined as 0.00118 ± 0.0088.
